According to the supplement of paper PMC4604168 (melanoma cell lines):
Some of the results follow. Many values rest on one well or one pass, so single values are uncertain.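 Cells were imaged in 1,536-well plates, and nuclei stained with an antibody against cleaved PARP were counted against all DNA-stained nuclei to give the apoptosis fraction. Screening doses were chosen to leave most cells alive, and resting and induced cleaved-PARP levels differ strongly between cell lines.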

System: SkMel30
Assay: cleaved PARP positive nuclei fraction relative to DMSO control; melanoma cells; higher = more apoptosis
Settings: library dose: low library concentration; 72 h

Question: `CC[C@]1(O)C[C@H]2CN(CCc3c([nH]c4ccccc34)[C@@](C(=O)OC)(c3cc4c(cc3OC)N(C=O)[C@H]3[C@@](O)(C(=O)OC)[C@H](OC(C)=O)[C@]5(CC)C=CCN6CC[C@]43[C@@H]65)C2)C1` [vincristine] + C=C(c1ccc(C(=O)O)cc1)c1cc2c(cc1C)C(C)(C)CCC2(C)C [Bexarotene] (first compound 0.0001 µM, partner dose 2 µM) was tested. Which “cleaved PARP positive nuclei fraction” value did it give?
Answer: 130%

Question: With `O=C(/C=C/c1cccnc1)NCCCCC1CCN(C(=O)c2ccccc2)CC1` + C#Cc1cccc(Nc2ncnc3cc(OCCOC)c(OCCOC)cc23)c1 [erlotinib] (first compound 0.01 µM, partner dose 0.8 µM) as the molecule, how does the “cleaved PARP positive nuclei fraction” value read?
Answer: 66.7%

Question: `Cc1cn(-c2cc(NC(=O)c3ccc(C)c(Nc4nccc(-c5cccnc5)n4)c3)cc(C(F)(F)F)c2)cn1` [nilotinib] + CO[C@H]1C[C@@H]2CC[C@@H](C)[C@@](O)(O2)C(=O)C(=O)N2CCCC[C@H]2C(=O)O[C@H]([C@H](C)C[C@@H]2CC[C@@H](OCCO)[C@H](OC)C2)CC(=O)[C@H](C)/C=C(\C)[C@@H](O)[C@@H](OC)C(=O)[C@H](C)C[C@H](C)/C=C/C=C/C=C/1C [everolimus] (first compound 0.2 µM, partner dose 0.02 µM) was tested. Which “cleaved PARP positive nuclei fraction” value did it give?
Answer: 70%

Question: With `O=C(Nc1cc(C(F)(F)F)cc(C(F)(F)F)c1)c1cc(Cl)ccc1O` + Cn1c(Nc2ccc(C(F)(F)F)cc2)nc2cc(Oc3ccnc(-c4ncc(C(F)(F)F)[nH]4)c3)ccc21 [CHIR265] (first compound 0.016 µM, partner dose 0.08 µM) as the molecule, how does the “cleaved PARP positive nuclei fraction” value read?
Answer: 125%

Question: With `O=c1[nH]nc(Sc2ncc([N+](=O)[O-])s2)n1-c1ccc2c(c1)OCCO2` + OCc1c[nH]c2ccccc12 [Indole-3-carbinol] (first compound 0.2 µM, partner dose 0.8 µM) as the molecule, how does the “cleaved PARP positive nuclei fraction” value read?
Answer: 254%

Question: `O=C(/C=C/c1cccnc1)NCCCCC1CCN(C(=O)c2ccccc2)CC1` + CO[C@H]1C[C@@H]2CC[C@@H](C)[C@@](O)(O2)C(=O)C(=O)N2CCCC[C@H]2C(=O)O[C@H]([C@H](C)C[C@@H]2CC[C@@H](OCCO)[C@H](OC)C2)CC(=O)[C@H](C)/C=C(\C)[C@@H](O)[C@@H](OC)C(=O)[C@H](C)C[C@H](C)/C=C/C=C/C=C/1C [everolimus] (first compound 0.01 µM, partner dose 0.02 µM) was tested. Which “cleaved PARP positive nuclei fraction” value did it give?
Answer: 31.7%

Question: `O=c1[nH]nc(Sc2ncc([N+](=O)[O-])s2)n1-c1ccc2c(c1)OCCO2` + CS(=O)(=O)CCNCc1ccc(-c2ccc3ncnc(Nc4ccc(OCc5cccc(F)c5)c(Cl)c4)c3c2)o1 [lapatinib] (first compound 0.2 µM, partner dose 0.8 µM) was tested. Which “cleaved PARP positive nuclei fraction” value did it give?
Answer: 50.4%

Question: With `COc1cc([C@@H]2c3cc4c(cc3[C@@H](O[C@@H]3O[C@@H]5CO[C@@H](C)O[C@H]5[C@H](O)[C@H]3O)[C@H]3COC(=O)[C@H]23)OCO4)cc(OC)c1O` [etoposide] + CO[C@H]1C[C@@H]2CC[C@@H](C)[C@@](O)(O2)C(=O)C(=O)N2CCCC[C@H]2C(=O)O[C@H]([C@H](C)C[C@@H]2CC[C@@H](OCCO)[C@H](OC)C2)CC(=O)[C@H](C)/C=C(\C)[C@@H](O)[C@@H](OC)C(=O)[C@H](C)C[C@H](C)/C=C/C=C/C=C/1C [everolimus] (first compound 0.02 µM, partner dose 0.02 µM) as the molecule, how does the “cleaved PARP positive nuclei fraction” value read?
Answer: 25.6%

Question: For `Cc1cn(-c2cc(NC(=O)c3ccc(C)c(Nc4nccc(-c5cccnc5)n4)c3)cc(C(F)(F)F)c2)cn1` [nilotinib] + Nc1cccc2c1CN(C1CCC(=O)NC1=O)C2=O [lenalidomide] (first compound 0.2 µM, partner dose 1 µM), which “cleaved PARP positive nuclei fraction” value is on record?
Answer: 97.5%

Question: `Cc1ccc(Nc2nccc(N(C)c3ccc4c(C)n(C)nc4c3)n2)cc1S(N)(=O)=O` [Pazopanib] + CNC(=O)c1cc(Oc2ccc(NC(=O)Nc3ccc(Cl)c(C(F)(F)F)c3)cc2)ccn1 [sorafenib] (first compound 0.4 µM, partner dose 0.4 µM) was tested. Which “cleaved PARP positive nuclei fraction” value did it give?
Answer: 120%

Question: For `O=c1[nH]nc(Sc2ncc([N+](=O)[O-])s2)n1-c1ccc2c(c1)OCCO2` + CS(=O)(=O)c1ccc(C(=O)Nc2ccc(Cl)c(-c3ccccn3)c2)c(Cl)c1 [vismodegib] (first compound 0.2 µM, partner dose 1 µM), which “cleaved PARP positive nuclei fraction” value is on record?
Answer: 48.3%

System: UACC62
Assay: as above
Settings: library dose: low library concentration; 72 h

Question: With `Cc1cn(-c2cc(NC(=O)c3ccc(C)c(Nc4nccc(-c5cccnc5)n4)c3)cc(C(F)(F)F)c2)cn1` [nilotinib] + CNC(=O)c1cc(Oc2ccc(NC(=O)Nc3ccc(Cl)c(C(F)(F)F)c3)cc2)ccn1 [sorafenib] (first compound 0.2 µM, partner dose 0.4 µM) as the molecule, how does the “cleaved PARP positive nuclei fraction” value read?
Answer: 108%

Question: For `O=c1[nH]nc(Sc2ncc([N+](=O)[O-])s2)n1-c1ccc2c(c1)OCCO2` + Nc1nc(F)nc2c1ncn2[C@@H]1O[C@H](CO)[C@@H](O)[C@@H]1O [fludarabine] (first compound 0.2 µM, partner dose 0.2 µM), which “cleaved PARP positive nuclei fraction” value is on record?
Answer: 355%

Question: With `Cc1cn(-c2cc(NC(=O)c3ccc(C)c(Nc4nccc(-c5cccnc5)n4)c3)cc(C(F)(F)F)c2)cn1` [nilotinib] + CCCS(=O)(=O)Nc1ccc(F)c(C(=O)c2c[nH]c3ncc(Cl)cc23)c1F [PLX4720] (first compound 0.2 µM, partner dose 0.08 µM) as the molecule, how does the “cleaved PARP positive nuclei fraction” value read?
Answer: 220%

Question: For `O=C(Nc1cc(C(F)(F)F)cc(C(F)(F)F)c1)c1cc(Cl)ccc1O` + CC(=O)O[C@@]12CO[C@@H]1C[C@H](O)[C@@]1(C)C(=O)[C@H](O)C3=C(C)[C@@H](OC(=O)[C@H](O)[C@@H](NC(=O)OC(C)(C)C)c4ccccc4)C[C@@](O)([C@@H](OC(=O)c4ccccc4)[C@H]21)C3(C)C [Docetaxel] (first compound 0.016 µM, partner dose 0.0001 µM), which “cleaved PARP positive nuclei fraction” value is on record?
Answer: 261%

Question: With `O=C(/C=C/c1cccnc1)NCCCCC1CCN(C(=O)c2ccccc2)CC1` + Nc1nc(F)nc2c1ncn2[C@@H]1O[C@H](CO)[C@@H](O)[C@@H]1O [fludarabine] (first compound 0.01 µM, partner dose 0.2 µM) as the molecule, how does the “cleaved PARP positive nuclei fraction” value read?
Answer: 74.3%

Question: With `N#CC[C@H](C1CCCC1)n1cc(-c2ncnc3[nH]ccc23)cn1` [ruxolitinib] + NC1(c2ccc(-c3nc4ccn5c(=O)[nH]nc5c4cc3-c3ccccc3)cc2)CCC1 [MK2206] (first compound 1 µM, partner dose 0.4 µM) as the molecule, how does the “cleaved PARP positive nuclei fraction” value read?
Answer: 112%

Question: How did the “cleaved PARP positive nuclei fraction” value turn out when `CCCCCCCCCCCCCCCCCCOP(=O)([O-])OC1CC[N+](C)(C)CC1` [Perifosine] + Cn1c(=O)n(-c2ccc(C(C)(C)C#N)cc2)c2c3cc(-c4cnc5ccccc5c4)ccc3ncc21 [NVP-BEZ235] (first compound 0.4 µM, partner dose 0.004 µM) was run?
Answer: 27.1%

Question: Which “cleaved PARP positive nuclei fraction” value does the source give for `CC[C@]1(O)C[C@H]2CN(CCc3c([nH]c4ccccc34)[C@@](C(=O)OC)(c3cc4c(cc3OC)N(C=O)[C@H]3[C@@](O)(C(=O)OC)[C@H](OC(C)=O)[C@]5(CC)C=CCN6CC[C@]43[C@@H]65)C2)C1` [vincristine] + CC(=O)O[C@@]12CO[C@@H]1C[C@H](O)[C@@]1(C)C(=O)[C@H](O)C3=C(C)[C@@H](OC(=O)[C@H](O)[C@@H](NC(=O)OC(C)(C)C)c4ccccc4)C[C@@](O)([C@@H](OC(=O)c4ccccc4)[C@H]21)C3(C)C [Docetaxel] (first compound 0.0001 µM, partner dose 0.0001 µM) here?
Answer: 450%

Question: `CCCCCCCCCCCCCCCCCCOP(=O)([O-])OC1CC[N+](C)(C)CC1` [Perifosine] + CO[C@H]1C[C@@H]2CC[C@@H](C)[C@@](O)(O2)C(=O)C(=O)N2CCCC[C@H]2C(=O)O[C@H]([C@H](C)C[C@@H]2CC[C@@H](OCCO)[C@H](OC)C2)CC(=O)[C@H](C)/C=C(\C)[C@@H](O)[C@@H](OC)C(=O)[C@H](C)C[C@H](C)/C=C/C=C/C=C/1C [everolimus] (first compound 0.4 µM, partner dose 0.02 µM) was tested. Which “cleaved PARP positive nuclei fraction” value did it give?
Answer: 289%

Question: For `Cc1ccc(Nc2nccc(N(C)c3ccc4c(C)n(C)nc4c3)n2)cc1S(N)(=O)=O` [Pazopanib] + CS(=O)(=O)CCNCc1ccc(-c2ccc3ncnc(Nc4ccc(OCc5cccc(F)c5)c(Cl)c4)c3c2)o1 [lapatinib] (first compound 0.4 µM, partner dose 0.8 µM), which “cleaved PARP positive nuclei fraction” value is on record?
Answer: 51.3%

Question: Which “cleaved PARP positive nuclei fraction” value does the source give for `N#CC[C@H](C1CCCC1)n1cc(-c2ncnc3[nH]ccc23)cn1` [ruxolitinib] + C[C@]1(c2nc3c(C(N)=O)cccc3[nH]2)CCCN1 [Veliparib] (first compound 1 µM, partner dose 1.4 µM) here?
Answer: 98.3%

Question: How did the “cleaved PARP positive nuclei fraction” value turn out when `CC[C@]1(O)C[C@H]2CN(CCc3c([nH]c4ccccc34)[C@@](C(=O)OC)(c3cc4c(cc3OC)N(C=O)[C@H]3[C@@](O)(C(=O)OC)[C@H](OC(C)=O)[C@]5(CC)C=CCN6CC[C@]43[C@@H]65)C2)C1` [vincristine] + Cn1cnc2c(F)c(Nc3ccc(Br)cc3Cl)c(C(=O)NOCCO)cc21 [selumetinib] (first compound 0.0001 µM, partner dose 0.015 µM) was run?
Answer: 392%

Question: For `CC[C@]1(O)C[C@H]2CN(CCc3c([nH]c4ccccc34)[C@@](C(=O)OC)(c3cc4c(cc3OC)N(C=O)[C@H]3[C@@](O)(C(=O)OC)[C@H](OC(C)=O)[C@]5(CC)C=CCN6CC[C@]43[C@@H]65)C2)C1` [vincristine] + Nc1cccc2c1CN(C1CCC(=O)NC1=O)C2=O [lenalidomide] (first compound 0.0001 µM, partner dose 1 µM), which “cleaved PARP positive nuclei fraction” value is on record?
Answer: 192%
